Experimental data from PMC9501056.
No constants are given. Whether binding was seen depends on the method and setting. Binding seen in cells or lysates may run through a third protein.

Tests used:
[1] = substrate: T1, SSI (Oryza sativa subsp. indica cv. IR36 (endogenous in developing seeds)) (UniProt A2Y9M4); assay: co-IP; soluble proteins of developing seeds of the be2b mutant at 15 DAF incubated with isozyme-specific antibodies and protein A magnetic beads; washed with PBS pH 7.4; Western blotting
T1 sequence: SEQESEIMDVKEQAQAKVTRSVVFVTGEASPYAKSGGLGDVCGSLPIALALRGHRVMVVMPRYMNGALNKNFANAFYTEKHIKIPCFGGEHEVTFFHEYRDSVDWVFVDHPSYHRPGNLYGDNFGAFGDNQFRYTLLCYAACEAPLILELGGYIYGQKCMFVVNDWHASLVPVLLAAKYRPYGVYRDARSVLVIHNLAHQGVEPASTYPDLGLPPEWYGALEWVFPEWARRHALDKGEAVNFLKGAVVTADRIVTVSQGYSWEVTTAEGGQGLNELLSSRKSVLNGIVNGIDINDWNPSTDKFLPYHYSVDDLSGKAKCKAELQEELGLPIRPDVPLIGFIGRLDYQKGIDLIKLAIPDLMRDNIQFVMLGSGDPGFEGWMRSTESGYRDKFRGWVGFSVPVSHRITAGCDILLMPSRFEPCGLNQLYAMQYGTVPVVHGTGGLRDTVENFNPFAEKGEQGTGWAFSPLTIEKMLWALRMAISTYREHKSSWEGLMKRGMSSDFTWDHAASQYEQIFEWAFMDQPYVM

[2] = biological target: SSIIIa (Oryza sativa subsp. indica cv. IR36 (endogenous in developing seeds)); assay: as above
[3] = biological target: T2, BEI (Oryza sativa subsp. indica cv. IR36 (endogenous in developing seeds)) (UniProt Q01401); assay: co-IP; soluble proteins of developing seeds of the be2b mutant at 5 DAF incubated with isozyme-specific antibodies and protein A magnetic beads; washed with PBS pH 7.4; Western blotting
T2 sequence: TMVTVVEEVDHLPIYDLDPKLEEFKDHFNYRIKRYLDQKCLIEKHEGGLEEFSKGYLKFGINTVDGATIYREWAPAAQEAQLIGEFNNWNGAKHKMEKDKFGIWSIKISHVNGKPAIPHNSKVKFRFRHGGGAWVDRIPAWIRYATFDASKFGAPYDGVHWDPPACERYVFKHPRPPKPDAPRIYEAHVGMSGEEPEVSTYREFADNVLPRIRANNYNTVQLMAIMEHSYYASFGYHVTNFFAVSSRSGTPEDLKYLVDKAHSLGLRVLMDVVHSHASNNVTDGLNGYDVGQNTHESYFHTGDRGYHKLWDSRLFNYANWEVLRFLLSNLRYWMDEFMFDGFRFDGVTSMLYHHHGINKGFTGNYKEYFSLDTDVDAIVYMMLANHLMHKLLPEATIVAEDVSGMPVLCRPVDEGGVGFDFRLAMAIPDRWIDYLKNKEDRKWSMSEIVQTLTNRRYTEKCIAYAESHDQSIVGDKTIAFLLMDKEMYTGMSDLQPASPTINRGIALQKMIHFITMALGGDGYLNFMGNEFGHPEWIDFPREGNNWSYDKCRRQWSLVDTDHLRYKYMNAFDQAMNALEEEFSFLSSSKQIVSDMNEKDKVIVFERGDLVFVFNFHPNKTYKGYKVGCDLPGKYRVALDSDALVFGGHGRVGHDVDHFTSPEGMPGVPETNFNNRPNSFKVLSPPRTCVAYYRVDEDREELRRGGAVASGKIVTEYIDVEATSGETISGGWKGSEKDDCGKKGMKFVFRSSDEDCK

[4] = biological target: T3, SSIIa (Oryza sativa subsp. indica cv. IR36 (endogenous in developing seeds)) (UniProt P0C586); assay: as above
T3 sequence: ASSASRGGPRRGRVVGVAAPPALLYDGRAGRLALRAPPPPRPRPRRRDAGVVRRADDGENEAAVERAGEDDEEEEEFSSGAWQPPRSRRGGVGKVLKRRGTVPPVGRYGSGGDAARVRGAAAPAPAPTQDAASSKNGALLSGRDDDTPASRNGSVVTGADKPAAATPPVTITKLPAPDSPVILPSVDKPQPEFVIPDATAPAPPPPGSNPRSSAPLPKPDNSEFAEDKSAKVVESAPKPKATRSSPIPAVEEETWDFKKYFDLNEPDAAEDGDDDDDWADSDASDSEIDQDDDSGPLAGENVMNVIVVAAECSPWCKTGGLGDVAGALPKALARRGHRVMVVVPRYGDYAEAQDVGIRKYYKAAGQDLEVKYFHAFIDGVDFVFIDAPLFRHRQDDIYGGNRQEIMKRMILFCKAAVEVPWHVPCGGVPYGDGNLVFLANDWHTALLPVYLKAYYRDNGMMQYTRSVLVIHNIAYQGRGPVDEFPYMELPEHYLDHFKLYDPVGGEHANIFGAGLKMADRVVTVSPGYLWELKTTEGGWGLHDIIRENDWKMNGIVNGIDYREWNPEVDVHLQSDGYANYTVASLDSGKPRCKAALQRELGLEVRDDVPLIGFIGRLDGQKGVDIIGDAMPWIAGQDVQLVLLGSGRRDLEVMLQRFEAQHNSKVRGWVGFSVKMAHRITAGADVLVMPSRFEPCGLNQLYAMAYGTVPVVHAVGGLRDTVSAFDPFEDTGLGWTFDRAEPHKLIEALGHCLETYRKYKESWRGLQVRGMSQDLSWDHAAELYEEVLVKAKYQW

[5] = biological target: SSIIIa (Oryza sativa subsp. indica cv. IR36 (endogenous in developing seeds)); assay: as above
[6] = substrate: T1, ; assay: co-IP; soluble proteins of developing seeds of WT (IR36) at 15 DAF incubated with isozyme-specific antibodies and protein A magnetic beads; washed with PBS pH 7.4; Western blotting
[7] = substrate: T1, ; assay: co-IP; soluble proteins of developing seeds of the be2b mutant at 5 DAF incubated with isozyme-specific antibodies and protein A magnetic beads; washed with PBS pH 7.4; Western blotting
[8] = substrate: T1, ; assay: co-IP; soluble proteins of developing seeds of the be2b mutant at 10 DAF incubated with isozyme-specific antibodies and protein A magnetic beads; washed with PBS pH 7.4; Western blotting

- binding [1]: no binding
- binding [2]: no binding
- binding [3]: no binding
- binding [4]: no binding
- binding [5]: no binding
- binding [6]: no binding
- binding [7]: no binding
- binding [8]: no binding
B1: ISA1 (enzyme, UniProt D0TZF0 55-803)
chain: SVASAVEVGVGEDEEEGVEEEEEEVEAVVMPERYALGGACRVLAGMPAPLGATALDGGVNFAVYSAGASAASLCLFTPDDLEADEVTEEVPLDPLFNRTGNVWHVFIEGELHNMLYGYRFDGMFAPHCGQYFDVSNVVVDPYAKAVISRGEYGVPGPGGDCWPQMAGMIPLPYSTFDWQGDLPLRYPQKDLVIYEMHLRGFTKHSSSNVEHPGTYIGAISKLDYLKELGVNCVELMPCHEFNELEYFSCSSKMNFWGYSTINFFSPMIRYSSGGIRNCGRDAINEFKTFVREAHKRGIEVIMDVVFNHTAEGNEKGPILSFRGIDNSTYYMLAPKGEFYNYSGCGNTFNCNHPVVREFIVDCLRYWVTEMHVDGFRFDLASIMTRGCSLWDPVNVYGSPVEGDMTTTGTPLATPPLIDMISNDPILGDVKLIAEAWDAGGLYQVGQFPHWKIWSEWNGKYRDIVRQFIKGTDGFAGGFAECLCGSPHLYQAGGRKPWHSINFVCAHDGFTLADLVTYNKKYNSSNGEDNRDGENHNLSWNCGEEGEFAGLSVKRLRKRQMRNFFVSLMVSQGVPMFYMGDEYGHTKGGNNNTYCHDHYVNYFRWDKKEESSDLQRFCSLMTKFRKQCESLGLADFPTAQRLHWHGHQPGKPDWSETSRFVAFSTKDETKGEIYVAFNASHLPAVVGLPERPGYRWEPLVDTGKPAPYDFLTDDLPDRAHAVHLFSHFLNSNLYPMLSYSSIILELQPDD
